The target of this assay is bls-EGFR extracellular domain (human) (UniProt P00533). Description: AlphaScreen or HTRF; biotinylated bls-EGFR extracellular domain and FLAG fusion proteins from the wheat cell-free system mixed in 100 mM Tris-HCl pH 8.0, 1 mg/mL BSA, 100 mM NaCl, 0.1% Tween20, 26 °C 1 h; streptavidin donor and protein A acceptor beads. A general note: Alpha assays give light when donor and acceptor beads are brought close together.

Results are given in words; binding and its absence hold for the method and conditions named. Some entries that bind do so weakly or less than the wild type. Where a sequence is shown, tags or fusion partners need not be part of it.

B1: FLAG-PTK7 (protein, UniProt Q13308 1-1070)
chain: MGAARGSPARPRRLPLLSVLLLPLLGGTQTAIVFIKQPSSQDALQGRRALLRCEVEAPGPVHVYWLLDGAPVQDTERRFAQGSSLSFAAVDRLQDSGTFQCVARDDVTGEEARSANASFNIKWIEAGPVVLKHPASEAEIQPQTQVTLRCHIDGHPRPTYQWFRDGTPLSDGQSNHTVSSKERNLTLRPAGPEHSGLYSCCAHSAFGQACSSQNFTLSIADESFARVVLAPQDVVVARYEEAMFHCQFSAQPPPSLQWLFEDETPITNRSRPPHLRRATVFANGSLLLTQVRPRNAGIYRCIGQGQRGPPIILEATLHLAEIEDMPLFEPRVFTAGSEERVTCLPPKGLPEPSVWWEHAGVRLPTHGRVYQKGHELVLANIAESDAGVYTCHAANLAGQRRQDVNITVATVPSWLKKPQDSQLEEGKPGYLDCLTQATPKPTVVWYRNQMLISEDSRFEVFKNGTLRINSVEVYDGTWYRCMSSTPAGSIEAQARVQVLEKLKFTPPPQPQQCMEFDKEATVPCSATGREKPTIKWERADGSSLPEWVTDNAGTLHFARVTRDDAGNYTCIASNGPQGQIRAHVQLTVAVFITFKVEPERTTVYQGHTALLQCEAQGDPKPLIQWKGKDRILDPTKLGPRMHIFQNGSLVIHDVAPEDSGRYTCIAGNSCNIKHTEAPLYVVDKPVPEESEGPGSPPPYKMIQTIGLSVGAAVAYIIAVLGLMFYCKKRCKAKRLQKQPEGEEPEMECLNGGPLQNGQPSAEIQEEVALTSLGSGPAATNKRHSTSDKMHFPRSSLQPITTLGKSEFGEVFLAKAQGLEEGVAETLVLVKSLQSKDEQQQLDFRRELEMFGKLNHANVVRLLGLCREAEPHYMVLEYVDLGDLKQFLRISKSKDEKLKSQPLSTKQKVALCTQVALGMEHLSNNRFVHKDLAARNCLVSAQRQVKVSALGLSKDVYNSEYYHFRQAWVPLRWMSPEAILEGDFSTKSDVWAFGVLMWEVFTHGEMPHGGQADDEVLADLQAGKARLPQPEGCPSKLYRLMQRCWALSPKDRPSFSEIASALGDSTVDSKP
On to B1, for which the binding entry was “binds”.
